PubChem BioAssay AID1259295 – Sanger Institute | 2017
Assay: 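Kinase knockdowns that sensitise colorectal cancer cells to BYL719, cetuximab or trametinib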 (secondary deconvolution screen, four single siRNAs per gene). Cell system: human COLO678 colorectal cancer cells. Knock-down reagent: single siRNA against human genes. Treatment: anchor drug BYL719 at 1 µM, cetuximab at 5 µg/ml or trametinib at 10 nM, or DMSO vehicle alone. Measured: 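Averaged cell survival relative to control pool 2 with DMSO, plus synergy scores weighing knockdown combined with each of three drugs against either separately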. Reading the numbers: synergy score with BYL719: higher = stronger combined killing with BYL719; synergy score with cetuximab: higher = stronger combined killing with cetuximab; synergy score with trametinib: higher = stronger combined killing with trametinib. Rule for the call: 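Hit: synergy score over 0.10 with BYL719, cetuximab or trametinib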.
This is an unselected part of 160 deposited reagents. Over the whole deposit, 40 (25%) are marked active. 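How the synergy score is calculated is not defined; single-siRNA calls need support from other siRNAs and cell lines.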 Reagents against one gene are numbered here. Further read-outs or replicates are left out here. Not stated in the record: the amount of reagent, the time to read-out.

| Target gene | reagent no. | synergy score with BYL719 | synergy score with cetuximab | synergy score with trametinib | outcome |
| --- | --- | --- | --- | --- | --- |
| PAK1 (p21 (RAC1) activated kinase 1) | 1 | -0.126 | -0.102 | 0.118 | active |
| PAK1 (p21 (RAC1) activated kinase 1) | 2 | -0.00428 | -0.0423 | 0.0372 | inactive |
| PAK1 (p21 (RAC1) activated kinase 1) | 3 | -0.071 | -0.0979 | -0.029 | inactive |
| PAK1 (p21 (RAC1) activated kinase 1) | 4 | -0.0999 | 0.0952 | 0.16 | active |
| CAMK2N1 (calcium/calmodulin dependent protein kinase II inhibitor 1) | 1 | -0.046 | -0.119 | -0.0113 | inactive |
| CAMK2N1 (calcium/calmodulin dependent protein kinase II inhibitor 1) | 2 | 0.298 | -0.0919 | 0.0535 | active |
| CAMK2N1 (calcium/calmodulin dependent protein kinase II inhibitor 1) | 3 | 0.193 | -0.0253 | 0.143 | active |
| CAMK2N1 (calcium/calmodulin dependent protein kinase II inhibitor 1) | 4 | 0.0341 | -0.027 | -0.0222 | inactive |
| GRK5 (G protein-coupled receptor kinase 5) | 1 | -0.0877 | -0.119 | -0.0589 | inactive |
| GRK5 (G protein-coupled receptor kinase 5) | 2 | -0.105 | -0.00425 | 0.186 | active |
| GRK5 (G protein-coupled receptor kinase 5) | 3 | 0.0903 | -0.00109 | 0.229 | active |
| GRK5 (G protein-coupled receptor kinase 5) | 4 | -0.102 | 0.0769 | 0.0208 | inactive |
| MPP3 (MAGUK p55 scaffold protein 3) | 1 | -0.0877 | -0.0725 | 0.047 | inactive |
| MPP3 (MAGUK p55 scaffold protein 3) | 2 | -0.0877 | -0.0811 | 0.0319 | inactive |
| MPP3 (MAGUK p55 scaffold protein 3) | 3 | 0.0479 | 0.0919 | 0.197 | active |
| MPP3 (MAGUK p55 scaffold protein 3) | 4 | -0.0689 | -0.0422 | 0.0152 | inactive |
| BMPR2 (bone morphogenetic protein receptor type 2) | 1 | -0.0877 | 0.0357 | -0.0654 | inactive |
| BMPR2 (bone morphogenetic protein receptor type 2) | 2 | -0.0867 | 0.0115 | -0.0669 | inactive |
| BMPR2 (bone morphogenetic protein receptor type 2) | 3 | -0.0214 | 0.00761 | -0.035 | inactive |
| BMPR2 (bone morphogenetic protein receptor type 2) | 4 | -0.0877 | -0.119 | -0.135 | inactive |
| KCNH8 (potassium voltage-gated channel subfamily H member 8) | 1 | 0.00831 | -0.00338 | 0.0505 | inactive |
| KCNH8 (potassium voltage-gated channel subfamily H member 8) | 2 | -0.0578 | 0.078 | 0.0359 | inactive |
| KCNH8 (potassium voltage-gated channel subfamily H member 8) | 3 | -0.0922 | 0.00525 | -0.103 | inactive |
| KCNH8 (potassium voltage-gated channel subfamily H member 8) | 4 | -0.102 | 0.0168 | 0.0764 | inactive |
| PRAG1 (PEAK1 related, kinase-activating pseudokinase 1) | 1 | 0.188 | 0.032 | 0.303 | active |
| PRAG1 (PEAK1 related, kinase-activating pseudokinase 1) | 2 | 0.314 | 0.13 | 0.261 | active |
| PRAG1 (PEAK1 related, kinase-activating pseudokinase 1) | 3 | 0.129 | -0.0855 | -0.0416 | active |
| PRAG1 (PEAK1 related, kinase-activating pseudokinase 1) | 4 | -0.00919 | -0.0768 | 0.0946 | inactive |
| IRAK1 (interleukin 1 receptor associated kinase 1) | 1 | 0.138 | -0.00415 | 0.129 | active |
| IRAK1 (interleukin 1 receptor associated kinase 1) | 2 | 0.135 | -0.0807 | 0.208 | active |
| IRAK1 (interleukin 1 receptor associated kinase 1) | 3 | 0.0687 | -0.105 | 0.136 | active |
| IRAK1 (interleukin 1 receptor associated kinase 1) | 4 | 0.298 | -0.119 | -0.0524 | active |
| MAPK4 (mitogen-activated protein kinase 4) | 1 | 0.0189 | -0.119 | 0.086 | inactive |
| MAPK4 (mitogen-activated protein kinase 4) | 2 | -0.0222 | -0.119 | 0.118 | active |
| MAPK4 (mitogen-activated protein kinase 4) | 3 | 0.0856 | 0.00726 | 0.0948 | inactive |
| MAPK4 (mitogen-activated protein kinase 4) | 4 | 0.0411 | -0.0223 | 0.0405 | inactive |
| MARK3 (microtubule affinity regulating kinase 3) | 1 | -0.0484 | -0.0069 | -0.069 | inactive |
| MARK3 (microtubule affinity regulating kinase 3) | 2 | -0.0878 | -0.0745 | -0.0313 | inactive |
| MARK3 (microtubule affinity regulating kinase 3) | 3 | -0.28 | -0.164 | -0.169 | inactive |
| MARK3 (microtubule affinity regulating kinase 3) | 4 | -0.29 | -0.233 | -0.104 | inactive |
| GTF2H1 (general transcription factor IIH subunit 1) | 1 | -0.0676 | -0.116 | -0.0486 | inactive |
| GTF2H1 (general transcription factor IIH subunit 1) | 2 | -0.0784 | 0.027 | 0.0903 | inactive |
| GTF2H1 (general transcription factor IIH subunit 1) | 3 | -0.112 | -0.0635 | 0.158 | active |
| GTF2H1 (general transcription factor IIH subunit 1) | 4 | -0.088 | 0.0139 | 0.1 | active |
| MAPKAPK2 (MAPK activated protein kinase 2) | 1 | -0.02 | -0.119 | -0.0287 | inactive |
| MAPKAPK2 (MAPK activated protein kinase 2) | 2 | 0.0687 | -0.119 | 0.24 | active |
| MAPKAPK2 (MAPK activated protein kinase 2) | 3 | 0.0219 | -0.0762 | 0.0463 | inactive |
| MAPKAPK2 (MAPK activated protein kinase 2) | 4 | 0.12 | 0.0225 | 0.0403 | active |
| AK2 (adenylate kinase 2) | 1 | -0.0452 | -0.0156 | -0.0731 | inactive |
| AK2 (adenylate kinase 2) | 2 | -0.0473 | -0.15 | -0.0501 | inactive |
| AK2 (adenylate kinase 2) | 3 | -0.0525 | -0.119 | -0.0654 | inactive |
| AK2 (adenylate kinase 2) | 4 | -0.0047 | -0.012 | 0.0847 | inactive |

Part of the list above, limited to “synergy score with trametinib”.
BMPR2 (bone morphogenetic protein receptor type 2) #2: -0.0669
BMPR2 (bone morphogenetic protein receptor type 2) #3: -0.035
BMPR2 (bone morphogenetic protein receptor type 2) #4: -0.135
KCNH8 (potassium voltage-gated channel subfamily H member 8) #1: 0.0505
KCNH8 (potassium voltage-gated channel subfamily H member 8) #2: 0.0359
KCNH8 (potassium voltage-gated channel subfamily H member 8) #3: -0.103
KCNH8 (potassium voltage-gated channel subfamily H member 8) #4: 0.0764
PRAG1 (PEAK1 related, kinase-activating pseudokinase 1) #1: 0.303
PRAG1 (PEAK1 related, kinase-activating pseudokinase 1) #2: 0.261
